Measured values from publication PMC2414870.
These are yes or no findings as the source states them, for the method shown. In cells and extracts the contact can be indirect. Binding calls can cover weak binding; strength is not graded here. Tags and fused reporters may be left off the sequences shown.

Molecular target: T1, Neurexin IV-GFP fusion protein (protein trap line) (Drosophila (endogenous in embryos)) (UniProt Q94887)
T1 sequence: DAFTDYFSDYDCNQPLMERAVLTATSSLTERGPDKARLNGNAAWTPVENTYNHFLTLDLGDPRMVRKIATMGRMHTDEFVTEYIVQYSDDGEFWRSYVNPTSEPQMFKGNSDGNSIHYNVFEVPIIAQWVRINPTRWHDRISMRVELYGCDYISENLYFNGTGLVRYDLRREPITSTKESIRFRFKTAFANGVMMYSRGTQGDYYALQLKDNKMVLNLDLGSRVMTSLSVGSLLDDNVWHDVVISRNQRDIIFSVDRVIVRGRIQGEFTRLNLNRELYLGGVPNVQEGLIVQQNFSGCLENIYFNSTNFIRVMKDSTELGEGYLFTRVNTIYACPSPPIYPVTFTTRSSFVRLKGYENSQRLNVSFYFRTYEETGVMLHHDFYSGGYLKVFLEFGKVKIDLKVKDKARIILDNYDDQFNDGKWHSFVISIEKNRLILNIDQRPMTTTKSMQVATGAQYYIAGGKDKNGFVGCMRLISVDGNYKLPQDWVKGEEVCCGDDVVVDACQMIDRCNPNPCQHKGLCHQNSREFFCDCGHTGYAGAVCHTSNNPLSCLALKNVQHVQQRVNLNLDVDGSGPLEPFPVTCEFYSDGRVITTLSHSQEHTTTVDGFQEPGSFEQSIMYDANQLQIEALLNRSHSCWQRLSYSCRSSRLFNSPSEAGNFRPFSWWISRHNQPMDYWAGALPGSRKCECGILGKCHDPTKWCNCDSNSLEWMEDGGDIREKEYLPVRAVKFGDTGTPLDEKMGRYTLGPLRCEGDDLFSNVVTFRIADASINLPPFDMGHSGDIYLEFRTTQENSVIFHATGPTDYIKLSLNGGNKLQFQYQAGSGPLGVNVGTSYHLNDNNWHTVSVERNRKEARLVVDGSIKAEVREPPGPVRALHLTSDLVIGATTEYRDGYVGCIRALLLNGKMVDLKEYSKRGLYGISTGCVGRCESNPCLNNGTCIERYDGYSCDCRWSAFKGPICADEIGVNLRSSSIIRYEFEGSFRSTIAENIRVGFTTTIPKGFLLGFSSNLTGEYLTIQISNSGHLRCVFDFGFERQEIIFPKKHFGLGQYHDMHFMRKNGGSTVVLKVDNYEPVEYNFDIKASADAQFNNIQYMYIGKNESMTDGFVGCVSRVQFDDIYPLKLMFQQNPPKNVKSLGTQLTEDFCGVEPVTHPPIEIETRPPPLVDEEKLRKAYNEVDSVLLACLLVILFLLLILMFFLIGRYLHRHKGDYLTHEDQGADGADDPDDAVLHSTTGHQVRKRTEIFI
Test: co-IP; NrxIV-GFP/TM6B embryos (> 8 h) lysed in CHAPS lysis buffer (20 mM Tris-HCl pH 8, 150 mM NaCl, 10% glycerol, 2 mM EDTA, 10 mM CHAPS); immunoprecipitation with mouse anti-GFP antibody, control anti-beta-gal antibody; Varicose detected with rabbit anti-Vari

| binding | Substance |
| --- | --- |
| binds | Varicose, long isoform (Vari-long) (Drosophila (endogenous in embryos)) |
| binds | Varicose, short isoform (Vari-short) (Drosophila (endogenous in embryos)) |
